These are yes or no findings as the source states them, for the method shown. Binding seen in cells or lysates may run through a third protein. Some entries that bind do so weakly or less than the wild type.
Target: activation-labile mutant glucocorticoid receptor GR^act/l (hGR L753F) (human (endogenous in CEM-3R43)) (UniProt P04150)
Assay: co-IP; CEM-3R43 cytosolic extracts: control without TMAO, plus 3 M TMAO, or from cells treated with 50 mM TMAO and kept in TMAO; primary antibody to GR, blots with antibodies to the chaperones

The chains behind the UniProt entries cited, without tags or fusion partners. Where a name states a change or a piece, a line headed by the entry shows the natural chain unless it says otherwise.
UniProt P04150: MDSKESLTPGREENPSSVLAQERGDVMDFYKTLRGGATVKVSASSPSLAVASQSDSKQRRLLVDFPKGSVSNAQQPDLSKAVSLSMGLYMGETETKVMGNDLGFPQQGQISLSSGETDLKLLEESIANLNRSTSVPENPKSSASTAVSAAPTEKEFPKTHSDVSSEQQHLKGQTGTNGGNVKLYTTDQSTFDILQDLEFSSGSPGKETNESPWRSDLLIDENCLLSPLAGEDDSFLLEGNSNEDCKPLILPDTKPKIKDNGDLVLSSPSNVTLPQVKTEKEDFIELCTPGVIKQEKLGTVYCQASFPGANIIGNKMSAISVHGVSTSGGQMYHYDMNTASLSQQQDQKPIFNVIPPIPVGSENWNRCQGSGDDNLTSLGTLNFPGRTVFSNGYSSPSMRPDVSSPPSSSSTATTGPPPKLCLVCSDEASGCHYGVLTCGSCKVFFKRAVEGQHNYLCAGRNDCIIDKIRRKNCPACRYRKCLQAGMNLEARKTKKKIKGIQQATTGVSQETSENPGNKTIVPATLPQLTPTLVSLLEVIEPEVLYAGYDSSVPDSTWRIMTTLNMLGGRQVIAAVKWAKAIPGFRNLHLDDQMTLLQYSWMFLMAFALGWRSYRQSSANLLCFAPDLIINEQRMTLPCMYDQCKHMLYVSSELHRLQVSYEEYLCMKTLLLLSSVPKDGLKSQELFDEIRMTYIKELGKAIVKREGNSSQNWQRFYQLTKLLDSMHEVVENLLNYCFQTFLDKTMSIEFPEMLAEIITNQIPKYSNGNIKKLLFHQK

binding | Molecule
binds | HOP (from UniProt P31948 1-543)
binds | FKBP52 (protein, UniProt Q02790 1-459) MTAEEMKATESGAQSAPLPMEGVDISPKQDEGVLKVIKREGTGTEMPMIGDRVFVHYTGWLLDGTKFDSSLDRKDKFSFDLGKGEVIKAWDIAIATMKVGEVCHITCKPEYAYGSAGSPPKIPPNATLVFEVELFEFKGEDLTEEEDGGIIRRIQTRGEGYAKPNEGAIVEVALEGYYKDKLFDQRELRFEIGEGENLDLPYGLERAIQRMEKGEHSIVYLKPSYAFGSVGKEKFQIPPNAELKYELHLKSFEKAKESWEMNSEEKLEQSTIVKERGTVYFKEGKYKQALLQYKKIVSWLEYESSFSNEEAQKAQALRLASHLNLAMCHLKLQAFSAAIESCNKALELDSNNEKGLFRRGEAHLAVNDFELARADFQKVLQLYPNNKAAKTQLAVCQQRIRRQLAREKKLYANMFERLAEEENKAKAEASSGDHPTDTEMKEEQKSNTAGSQSQVETEA
binds | p23 (protein, UniProt Q15185 1-160) MQPASAKWYDRRDYVFIEFCVEDSKDVNVNFEKSKLTFSCLGGSDNFKHLNEIDLFHCIDPNDSKHKRTDRSILCCLRKGESGQSWPRLTKERAKLNWLSVDFNNWKDWEDDSDEDMSNFDRFSEMMNNMGGDEDVDLPEVDGADDDSQDSDDEKMPDLE
